# Results deposited as PubChem BioAssay AID1159508 (Drosophila RNAi Screening Center, 2015)
# Assay: 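Viability reference data for a dsRNA library against RNA-binding protein genes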
# System: Drosophila S2R+ cells
# Knock-down reagent: long dsRNA against Drosophila genes
# Time to read-out: 5 days
# Read-out: 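Total ATP per well measured by luciferase luminescence after 5 days, expressed as z-scores for each replicate and as their average across up to three replicates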
# Direction: mean ATP z-score: higher = more total ATP luminescence
# Active means: In these data the active calls have mean ATP z-score at about -2 or lower, or at about 2 or higher
# Calls: active = strong ATP change (up or down); inactive = no strong ATP change
# This is a random part of 812 reagents. 18 of all reagents (2.2%) were called active. 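Calls include both increased and decreased ATP; roughly one in four reagents has no third replicate value.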 A plus sign joins genes that one reagent is predicted to hit. Further read-outs or replicates are left out here. No sequences are given here. Not given: the amount of reagent.
predicted target,dsRNA,mean ATP z-score,Outcome
sqd (squid),DRSC29779,-0.977,inactive
sqd (squid),DRSC32626,-0.225,inactive
bbx + waw,DRSC20575,-0.302,inactive
bbx + waw,DRSC24894,-0.766,inactive
how (held out wings),DRSC25008,0.27,inactive
how (held out wings),DRSC40698,0.0816,inactive
RnpS1 (RNA-binding protein S1),DRSC15154,0.737,inactive
RnpS1 (RNA-binding protein S1),DRSC42694,0.215,inactive
stau (staufen),DRSC07698,0.343,inactive
stau (staufen),DRSC34478,1.63,inactive
Psi (P-element somatic inhibitor),DRSC25220,1.44,inactive
Psi (P-element somatic inhibitor),DRSC34932,1.52,inactive
Nufip,DRSC10397,0.0915,inactive
Nufip,DRSC35900,0.16,inactive
Smn (survival motor neuron),DRSC10223,0.282,inactive
Smn (survival motor neuron),DRSC42688,-0.903,inactive
Rrp46,DRSC15537,0.364,inactive
Rrp46,DRSC42696,-0.799,inactive
mRF1 (mitochondrial translation release factor 1),DRSC02880,-0.329,inactive
mRF1 (mitochondrial translation release factor 1),DRSC29576,1.31,inactive
Srp14 (Signal recognition particle 14),DRSC15797,0.673,inactive
Srp14 (Signal recognition particle 14),DRSC42702,0.843,inactive
orb2 + CG43783,DRSC10540,-0.825,inactive
orb2 + CG43783,DRSC10542,-0.0201,inactive
orb2 + CG43783,DRSC25697,0.296,inactive
orb2 + CG43783,DRSC42724,0.27,inactive
U2af38 (U2 small nuclear riboprotein auxiliary factor 38),DRSC00796,-0.788,inactive
U2af38 (U2 small nuclear riboprotein auxiliary factor 38),DRSC28068,-0.321,inactive
nanos,DRSC17018,0.233,inactive
nanos,DRSC25268,-0.775,inactive
Sf3b6 (Splicing factor 3b subunit 6),DRSC26462,-1.12,inactive
Sf3b6 (Splicing factor 3b subunit 6),DRSC30848,-1.06,inactive
larp (La related protein),DRSC28325,-0.347,inactive
larp (La related protein),DRSC34672,-1.18,inactive
hoip (hoi-polloi),DRSC03546,-2.82,active
hoip (hoi-polloi),DRSC31857,-2.75,active
CG42259,DRSC36038,0.499,inactive
CG42259,DRSC40602,-0.538,inactive
MCTS1 (Malignant T cell amplified sequence 1),DRSC18393,1.12,inactive
MCTS1 (Malignant T cell amplified sequence 1),DRSC42652,0.716,inactive
pAbp (poly(A) binding protein),DRSC07659,-0.592,inactive
pAbp (poly(A) binding protein),DRSC30807,-0.312,inactive

Reformatted: results already given.
{"predicted target": "CG42259", "dsRNA": "DRSC36038", "mean ATP z-score": 0.499, "Outcome": "inactive"}
{"predicted target": "CG42259", "dsRNA": "DRSC40602", "mean ATP z-score": -0.538, "Outcome": "inactive"}
{"predicted target": "MCTS1 (Malignant T cell amplified sequence 1)", "dsRNA": "DRSC18393", "mean ATP z-score": 1.12, "Outcome": "inactive"}
{"predicted target": "MCTS1 (Malignant T cell amplified sequence 1)", "dsRNA": "DRSC42652", "mean ATP z-score": 0.716, "Outcome": "inactive"}
